Results on four molecules are retold here after US20140010757A1 (Stanford University, published 2014).

Chains of the proteins cited; added tags and fusions are not shown. Lines headed by an entry give the natural chain unless they say otherwise; changes in a name come on top.
UniProt P08648: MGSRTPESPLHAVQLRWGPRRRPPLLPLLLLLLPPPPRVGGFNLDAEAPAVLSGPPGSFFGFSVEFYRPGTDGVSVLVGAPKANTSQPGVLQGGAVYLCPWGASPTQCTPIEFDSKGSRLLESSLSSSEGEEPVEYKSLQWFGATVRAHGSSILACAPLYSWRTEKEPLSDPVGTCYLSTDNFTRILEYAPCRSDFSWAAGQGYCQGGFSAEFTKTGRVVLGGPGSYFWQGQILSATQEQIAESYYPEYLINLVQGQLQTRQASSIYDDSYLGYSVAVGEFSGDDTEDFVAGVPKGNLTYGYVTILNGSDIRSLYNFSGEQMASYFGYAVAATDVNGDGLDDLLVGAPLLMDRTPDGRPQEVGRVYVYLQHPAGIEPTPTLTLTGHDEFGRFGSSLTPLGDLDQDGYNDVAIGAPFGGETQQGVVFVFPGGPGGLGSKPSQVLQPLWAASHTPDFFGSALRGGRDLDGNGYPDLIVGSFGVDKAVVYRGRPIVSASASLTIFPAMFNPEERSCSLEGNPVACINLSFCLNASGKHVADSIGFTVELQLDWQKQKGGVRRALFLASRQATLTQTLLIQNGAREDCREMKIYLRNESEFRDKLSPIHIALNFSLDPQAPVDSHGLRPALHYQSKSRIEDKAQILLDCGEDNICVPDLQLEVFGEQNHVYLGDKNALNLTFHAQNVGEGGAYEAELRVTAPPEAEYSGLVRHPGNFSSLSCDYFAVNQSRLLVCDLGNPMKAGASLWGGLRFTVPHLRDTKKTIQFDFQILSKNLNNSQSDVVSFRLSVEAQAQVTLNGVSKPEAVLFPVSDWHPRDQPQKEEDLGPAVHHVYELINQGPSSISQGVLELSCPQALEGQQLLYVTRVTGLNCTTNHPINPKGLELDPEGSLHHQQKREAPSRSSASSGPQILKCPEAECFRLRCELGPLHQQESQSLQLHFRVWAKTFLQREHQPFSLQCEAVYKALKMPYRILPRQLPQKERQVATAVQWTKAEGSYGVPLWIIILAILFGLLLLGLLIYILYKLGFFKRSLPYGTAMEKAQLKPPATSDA
UniProt P06756: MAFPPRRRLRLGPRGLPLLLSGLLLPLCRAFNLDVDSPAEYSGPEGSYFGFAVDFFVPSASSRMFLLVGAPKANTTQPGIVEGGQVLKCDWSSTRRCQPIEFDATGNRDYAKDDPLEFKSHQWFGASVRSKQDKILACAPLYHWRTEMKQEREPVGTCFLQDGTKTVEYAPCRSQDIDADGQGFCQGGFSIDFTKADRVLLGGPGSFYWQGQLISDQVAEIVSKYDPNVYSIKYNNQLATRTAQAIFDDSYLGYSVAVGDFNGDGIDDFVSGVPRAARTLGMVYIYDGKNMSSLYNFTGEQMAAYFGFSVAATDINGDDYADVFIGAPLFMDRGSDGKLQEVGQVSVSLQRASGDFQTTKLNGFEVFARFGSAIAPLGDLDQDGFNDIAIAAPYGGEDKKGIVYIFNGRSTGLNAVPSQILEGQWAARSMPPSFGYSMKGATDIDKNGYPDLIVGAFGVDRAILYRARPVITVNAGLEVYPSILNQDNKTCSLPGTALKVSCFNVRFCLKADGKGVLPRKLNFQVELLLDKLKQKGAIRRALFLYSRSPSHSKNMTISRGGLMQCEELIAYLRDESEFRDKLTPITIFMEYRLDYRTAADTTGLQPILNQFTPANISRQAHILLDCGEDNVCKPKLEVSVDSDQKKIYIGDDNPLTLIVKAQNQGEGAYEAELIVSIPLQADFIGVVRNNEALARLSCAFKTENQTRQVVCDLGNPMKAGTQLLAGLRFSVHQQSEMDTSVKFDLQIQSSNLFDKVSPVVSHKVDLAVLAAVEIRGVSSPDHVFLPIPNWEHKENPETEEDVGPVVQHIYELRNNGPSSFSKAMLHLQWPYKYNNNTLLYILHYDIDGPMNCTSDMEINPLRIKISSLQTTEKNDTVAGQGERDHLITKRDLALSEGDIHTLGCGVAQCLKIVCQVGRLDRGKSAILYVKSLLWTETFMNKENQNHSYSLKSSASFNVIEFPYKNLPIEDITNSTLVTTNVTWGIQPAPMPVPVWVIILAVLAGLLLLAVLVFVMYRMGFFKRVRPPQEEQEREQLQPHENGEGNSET

These are yes or no findings as the source states them, for the method shown. Some binding calls cover weakened binding; strength is not graded here.

For experiment [1], the target named is α5β1 integrin (detergent-solubilized) (UniProt P08648). The experiment can be described thus: competition with ^125I-echistatin on plate-coated detergent-solubilized integrin.
Experiment [2] has as its target αvβ5 integrin (soluble / detergent-solubilized) (UniProt P06756). The experiment is described as above.

With GCPRPRGDNPPLTCSQDSDCLAGCVCGPNGFCG (designed binder) [Miniprotein 2.5F (synthetic)], the binding entry in experiment [1] and in experiment [2] was “binds” each time.

Take GCPQGRGDWAPTSCSQDSDCRAGCVCGPNGFCG (designed binder) [Miniprotein 2.5D (synthetic)]: the binding result in experiment [2] is recorded as “binds”.

On to GCTIGRGDWAPSECSQDSDCLAGCVCGPNGFCG (designed binder) [Miniprotein 1.5B (synthetic)], for which the binding entry in experiment [2] is listed as “binds”.

For the molecule GCVTGRGDSPASSCSQDSDCLAGCVCGPNGFCG (designed binder) [Loop-grafted FN-RGD (synthetic RGD-miniprotein)], the binding result in experiment [2] is “binds”.
